# For at least one compound, name, drawing or mass did not settle the structure.
# How the values were obtained:
# SIRT6 KO PDAC cell lines = test: Proliferation assay (trypan blue / MTT), murine SIRT6 KO PDAC cells; assay type: cell-based, mouse; settings: dichloroacetate in culture medium for five days
# SIRT6 KO PDAC = test: DCA in drinking water, development of lethal PDAC tumors in GEMM; assay type: in vivo; settings: DCA in drinking water from 4 weeks of age; SIRT6 KO mice
# SIRT6 WT PDAC cell lines = test: Proliferation assay (trypan blue / MTT), murine SIRT6 WT PDAC cells; assay type: cell-based, mouse; settings: dichloroacetate in culture medium for five days
compound,measurement,setting,value
"O=C(O)C(Cl)Cl [DCA, dichloroacetate]",growth inhibition,SIRT6 KO PDAC cell lines,inhibited growth of both SIRT6 WT and KO PDAC cell lines with similar potency
same,onset of lethal PDAC tumors,SIRT6 KO PDAC,minimally delayed the onset of SIRT6 KO PDAC
same,growth inhibition,SIRT6 WT PDAC cell lines,inhibited growth of both SIRT6 WT and KO PDAC cell lines with similar potency

# Source: US12121534B2, “Agents and methods for treating pancreatic ductal adenocarcinomas” (The General Hospital Corporation, priority 2015, dated 2024)
